Experiment [1] addresses T1, PHAX^1-18 peptide E9R, biotinylated (human) (UniProt Q9H814).
T1 sequence (peptide, biotin): MALEVGDMRDGQLSDSDS
Description: BLI. A general note: Biolayer interferometry detects binding as a change in optical thickness at a sensor tip.

By UniProt entry, the sequences of proteins in these tests, tags left out. Where a name states a change or a piece, a line headed by the entry shows the natural chain unless it says otherwise.
UniProt Q9H814: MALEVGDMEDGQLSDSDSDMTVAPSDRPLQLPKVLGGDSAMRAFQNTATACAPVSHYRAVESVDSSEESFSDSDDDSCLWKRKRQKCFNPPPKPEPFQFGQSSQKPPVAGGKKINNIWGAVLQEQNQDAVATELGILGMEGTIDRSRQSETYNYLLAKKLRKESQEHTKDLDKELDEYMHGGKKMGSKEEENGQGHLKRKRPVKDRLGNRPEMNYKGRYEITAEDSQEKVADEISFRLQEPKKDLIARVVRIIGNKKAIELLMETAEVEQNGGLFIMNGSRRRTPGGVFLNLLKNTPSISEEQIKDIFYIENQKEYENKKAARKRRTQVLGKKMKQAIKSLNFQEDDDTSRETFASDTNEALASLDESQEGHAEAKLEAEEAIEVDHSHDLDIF

Experiment [2] addresses T2, MBP-ZC3H18^220-353 (human) (UniProt Q86VM9).
T2 sequence: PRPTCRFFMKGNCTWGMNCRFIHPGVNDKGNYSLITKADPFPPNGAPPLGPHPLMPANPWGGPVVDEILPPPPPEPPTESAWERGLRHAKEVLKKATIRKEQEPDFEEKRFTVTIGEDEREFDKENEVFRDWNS
Description: pull-down.

A further experiment addresses T3, CBP80ΔNLS (NCBP1), human (human, UniProt Q09161 20-790).
T3 sequence (looked up): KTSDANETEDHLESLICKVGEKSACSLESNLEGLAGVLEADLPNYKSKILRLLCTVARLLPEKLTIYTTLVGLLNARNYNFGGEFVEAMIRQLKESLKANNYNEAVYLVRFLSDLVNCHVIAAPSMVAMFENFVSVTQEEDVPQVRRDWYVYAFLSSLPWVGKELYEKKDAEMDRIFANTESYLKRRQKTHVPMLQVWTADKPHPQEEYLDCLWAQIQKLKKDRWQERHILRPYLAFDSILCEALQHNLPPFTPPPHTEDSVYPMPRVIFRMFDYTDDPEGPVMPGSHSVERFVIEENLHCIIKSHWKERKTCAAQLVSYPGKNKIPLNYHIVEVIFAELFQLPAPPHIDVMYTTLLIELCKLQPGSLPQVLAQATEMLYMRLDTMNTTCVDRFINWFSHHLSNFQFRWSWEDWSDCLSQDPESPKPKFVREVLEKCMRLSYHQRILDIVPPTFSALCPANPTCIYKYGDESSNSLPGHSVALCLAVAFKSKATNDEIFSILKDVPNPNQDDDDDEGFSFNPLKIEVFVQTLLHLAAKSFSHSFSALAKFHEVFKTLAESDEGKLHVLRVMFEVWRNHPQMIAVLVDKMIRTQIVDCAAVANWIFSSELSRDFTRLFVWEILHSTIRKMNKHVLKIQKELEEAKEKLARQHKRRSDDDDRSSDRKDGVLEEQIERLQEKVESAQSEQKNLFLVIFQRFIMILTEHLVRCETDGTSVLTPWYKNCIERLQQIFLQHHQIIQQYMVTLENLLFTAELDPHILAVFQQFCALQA
Kind of experiment: cryo-EM structure.

A further experiment addresses T4, CBP20 (NCBP2), human (human, UniProt P52298 1-156).
T4 sequence: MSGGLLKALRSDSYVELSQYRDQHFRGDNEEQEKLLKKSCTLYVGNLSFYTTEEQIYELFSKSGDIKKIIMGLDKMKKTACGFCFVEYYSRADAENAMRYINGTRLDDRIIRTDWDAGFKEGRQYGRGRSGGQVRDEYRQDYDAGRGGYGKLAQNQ
Description: cryo-EM structure.

These are yes or no findings as the source states them, for the method shown. For some of these results: Binding calls can cover weak binding; strength is not graded here. For some of these results: Where a sequence is shown, tags or fusion partners need not be part of it.

Consider “ARS2^147-871 (human) (domain or fragment)”, for which the binding entry is recorded as “no binding” in experiment [1]; “binds” in experiment [2]; “binds” with CBP80ΔNLS (NCBP1), human; “binds” with CBP20 (NCBP2), human.

The values are drawn from doi:10.1101/2023.07.25.550453 (bioRxiv, 2023).
